We go through one molecule from the supplement of paper PMC8728848.

What all share (assay): glycan array binding signal (z-score within array); higher = stronger binding
What all share (conditions): glycan notation: IUPAC condensed, linker removed

Assay [1] addresses Gal(b1-4)GlcNAc(b1-2)Man(a1-6)[Man(a1-3)]Man(b1-4)GlcNAc(b1-4)GlcNAc. The gist of the method:
(§1)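 The Consortium for Functional Glycomics database supplied 3228 glycan arrays, of which those lacking an available protein sequence were dropped. The binding signal, a within-array Z-score, was averaged across arrays of the same protein sequence and across linkers. Negative scores can be read as non-binding.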

Assay [2] concerns the target Gal(b1-4)GlcNAc(b1-2)[Gal(b1-4)GlcNAc(b1-4)]Man(a1-3)[Gal(b1-4)GlcNAc(b1-2)Man(a1-6)]Man(b1-4)GlcNAc(b1-4)GlcNAc. The method, boiled down:
as §1

Assay [3] addresses Gal(b1-4)GlcNAc(b1-2)[Gal(b1-4)GlcNAc(b1-4)]Man(a1-3)[Gal(b1-4)GlcNAc(b1-2)[Gal(b1-4)GlcNAc(b1-6)]Man(a1-6)]Man(b1-4)GlcNAc(b1-4)GlcNAc. The method, boiled down:
as §1

In assay [4] the target is Gal(b1-4)GlcNAc(b1-2)[Gal(b1-4)GlcNAc(b1-4)]Man(a1-3)[GlcNAc(b1-4)][Gal(b1-4)GlcNAc(b1-2)Man(a1-6)]Man(b1-4)GlcNAc(b1-4)GlcNAc. The method, boiled down:
as §1

Assay [5] deals with Gal(b1-4)GlcNAc(b1-2)[Gal(b1-4)GlcNAc(b1-4)]Man(a1-3)[GlcNAc(b1-4)][Gal(b1-4)GlcNAc(b1-2)[Gal(b1-4)GlcNAc(b1-6)]Man(a1-6)]Man(b1-4)GlcNAc(b1-4)GlcNAc. The method, boiled down: as §1
In assay [6] the target is Gal(b1-4)GlcNAc(b1-2)[Gal(b1-4)GlcNAc(b1-6)]Man(a1-6)[Gal(b1-4)GlcNAc(b1-2)Man(a1-3)]Man(b1-4)GlcNAc(b1-4)GlcNAc. The gist of the method: as §1
In assay [7] the target is Gal(b1-4)GlcNAc(b1-2)[Gal(b1-4)GlcNAc(b1-6)]Man(a1-6)[Gal(b1-4)GlcNAc(b1-2)Man(a1-3)]Man(b1-4)GlcNAc(b1-4)[Fuc(a1-6)]GlcNAc. The gist of the method: as §1
In assay [8] the target is Gal(b1-4)GlcNAc(b1-2)[Gal(b1-4)GlcNAc(b1-6)]Man(a1-6)[GlcNAc(b1-4)][Gal(b1-4)GlcNAc(b1-2)Man(a1-3)]Man(b1-4)GlcNAc(b1-4)GlcNAc. The gist of the method:
as §1

Assay [9] deals with Gal(b1-4)GlcNAc(b1-2)[Gal(b1-4)GlcNAc(b1-6)]Man(a1-6)[GlcNAc(b1-4)][Gal(b1-4)GlcNAc(b1-2)[Gal(b1-4)GlcNAc(b1-4)]Man(a1-3)]Man(b1-4)GlcNAc(b1-4)[Fuc(a1-6)]GlcNAc. The gist of the method: as §1
Assay [10] concerns the target Gal(b1-4)GlcNAc(b1-3)Gal(b1-3)GalNAc. The method, boiled down:
as §1

In assay [11] the target is Gal(b1-4)GlcNAc(b1-3)Gal(b1-3)GlcNAc. The method, boiled down: as §1
Assay [12] addresses Gal(b1-4)GlcNAc(b1-3)Gal(b1-4)Glc. The gist of the method: as §1
Assay [13] deals with Gal(b1-4)GlcNAc(b1-3)Gal(b1-4)GlcNAc. The method, boiled down:
as §1

Assay [14] addresses Gal(b1-4)GlcNAc(b1-3)Gal(b1-4)GlcNAc(b1-2)Man(a1-3)[Gal(b1-4)GlcNAc(b1-3)Gal(b1-4)GlcNAc(b1-2)Man(a1-6)]Man(b1-4)GlcNAc(b1-4)GlcNAc. The method, boiled down:
as §1

Assay [15] deals with Gal(b1-4)GlcNAc(b1-3)Gal(b1-4)GlcNAc(b1-2)Man(a1-3)[Gal(b1-4)GlcNAc(b1-3)Gal(b1-4)GlcNAc(b1-2)Man(a1-6)]Man(b1-4)GlcNAc(b1-4)[Fuc(a1-6)]GlcNAc. The method, boiled down: as §1
Assay [16] concerns the target Gal(b1-4)GlcNAc(b1-3)Gal(b1-4)GlcNAc(b1-2)[Gal(b1-4)GlcNAc(b1-3)Gal(b1-4)GlcNAc(b1-6)]Man(a1-6)[Gal(b1-4)GlcNAc(b1-3)Gal(b1-4)GlcNAc(b1-2)Man(a1-3)]Man(b1-4)GlcNAc(b1-4)GlcNAc. The method, boiled down:
as §1

Assay [17] concerns the target Gal(b1-4)GlcNAc(b1-3)Gal(b1-4)GlcNAc(b1-2)[Gal(b1-4)GlcNAc(b1-3)Gal(b1-4)GlcNAc(b1-6)]Man(a1-6)[Gal(b1-4)GlcNAc(b1-3)Gal(b1-4)GlcNAc(b1-2)Man(a1-3)]Man(b1-4)GlcNAc(b1-4)[Fuc(a1-6)]GlcNAc. The gist of the method:
as §1

Assay [18] deals with Gal(b1-4)GlcNAc(b1-3)Gal(b1-4)GlcNAc(b1-3)Gal(b1-4)GlcNAc. The gist of the method: as §1

Some of the results follow.

B1: Vd7LysM (Verticillium dahliae) (protein)
chain: RRGPEPKYPPAAGTSSYCSYWVDYEGDKSCSRVLEDNVVVLKDFARWNPTVGADCSGIKAGNSYCVEAFGEPEPIEVTTTTRAATTTTQPTATTTTFANGIATPQPTQSGMVTNCNKFHWIAEGVSCSQVISFQKITLADFVKWNPSVKSDCSGMWAGVNVCVGVVGSSTDTAKPTTTAPSNGVVTPQPTQPSMVTNCNKFHWIAKGVTCQQVISYQKISLADFVKWNPSVLSDCSGMWAEVQVCVGVIGSTPTTLATTTTTAGNGVSTPLPTQPGMVTNCAKFHWVAKGVTCNQIYSFQKITLEQFVSYNPTVKSDCSGMQAEVQVCVGLIAGTTPTTTRPPTTTAPGNGVSTPQPTQPGMVTNCAKFHWVAKGVTCNQIYSFQKITLEQFVSFNPTVKSDCTGMQAEVNVCVGLIGGNPTPTQTGNGIATPTPIQPGMVSNCKKFHWIAQGVTCQQVISFQKITLADFVKWNTGVGSDCRTMWAETNVCVGV
For B1, the “glycan array binding signal (z-score)” value in [1] is 0.789; in assay [2] it was -0.751; in assay [3] it was -0.651; in assay [4] it was -1.36; in assay [5], -0.818; in assay [6], -0.692. Also, the “glycan array binding signal (z-score)” value in assay [7] was -0.464; in [8], 0.042; in assay [9], 1.59; in assay [10], -0.133; in [11], -0.642; in assay [12] it was -0.908. The “glycan array binding signal (z-score)” value in assay [13] is -0.99; in assay [14] it was -0.092; in [15] it was -0.239; in [16], -0.382; in assay [17], 2.56; in assay [18], -1.07.
